This note sets out measurements from PMC7072789.

Chains of the proteins cited; added tags and fusions are not shown. Residues count along the entry.
UniProt P27824, residues 21-592: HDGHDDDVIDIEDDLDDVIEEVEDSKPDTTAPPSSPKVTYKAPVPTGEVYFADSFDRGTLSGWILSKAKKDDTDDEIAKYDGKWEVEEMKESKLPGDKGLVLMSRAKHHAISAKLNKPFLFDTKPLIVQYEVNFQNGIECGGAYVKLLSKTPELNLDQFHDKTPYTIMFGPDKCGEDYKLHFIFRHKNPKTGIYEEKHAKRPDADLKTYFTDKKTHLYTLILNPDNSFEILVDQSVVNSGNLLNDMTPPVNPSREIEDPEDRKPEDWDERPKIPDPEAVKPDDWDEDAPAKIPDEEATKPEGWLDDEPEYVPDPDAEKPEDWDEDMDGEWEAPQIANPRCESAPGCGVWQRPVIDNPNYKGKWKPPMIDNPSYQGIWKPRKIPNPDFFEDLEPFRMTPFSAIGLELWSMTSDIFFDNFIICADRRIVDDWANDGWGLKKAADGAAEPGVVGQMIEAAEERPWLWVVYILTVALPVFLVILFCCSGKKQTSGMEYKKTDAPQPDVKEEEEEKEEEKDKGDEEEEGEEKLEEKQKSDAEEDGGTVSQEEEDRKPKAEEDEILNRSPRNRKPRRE

The assay concerns the target T1, TRAPα fused with HA (TRAPα-HA) (UniProt P43307).
T1 sequence: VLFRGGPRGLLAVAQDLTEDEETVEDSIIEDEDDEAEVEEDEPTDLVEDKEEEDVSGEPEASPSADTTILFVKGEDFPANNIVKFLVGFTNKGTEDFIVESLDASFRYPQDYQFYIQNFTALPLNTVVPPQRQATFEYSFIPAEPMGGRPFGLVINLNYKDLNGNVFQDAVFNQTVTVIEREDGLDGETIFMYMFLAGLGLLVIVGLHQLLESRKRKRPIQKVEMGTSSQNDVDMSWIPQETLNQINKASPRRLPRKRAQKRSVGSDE
Nature of the assay: affinity purification with mass spectrometry; TRAPα-HA captured on anti-HA magnetic beads from microsomes solubilized in 2% digitonin (50 mM HEPES pH 7.4, 150 mM NaCl, 5 mM MgAc, 1 mM DTT), washed with 0.2% digitonin, 4 °C; differentially recovered gel band identified by MS/MS.

These are yes or no findings as the source states them, for the method shown. Binding seen in cells or lysates may run through a third protein. These calls come from enrichment with a bait or labelling near it, and not all partners need be listed. Tags and fused reporters may be left off the sequences shown.

With “calnexin (CANX), endogenous (from UniProt P27824 21-592)”, the binding result is on record as “binds”.
